Test results taken from publication PMC10866993.

T1: PF3D7_0823200 (P. falciparum (endogenous in 3D7 and NF54 parasites)) (UniProt Q8IB66)
T1 sequence: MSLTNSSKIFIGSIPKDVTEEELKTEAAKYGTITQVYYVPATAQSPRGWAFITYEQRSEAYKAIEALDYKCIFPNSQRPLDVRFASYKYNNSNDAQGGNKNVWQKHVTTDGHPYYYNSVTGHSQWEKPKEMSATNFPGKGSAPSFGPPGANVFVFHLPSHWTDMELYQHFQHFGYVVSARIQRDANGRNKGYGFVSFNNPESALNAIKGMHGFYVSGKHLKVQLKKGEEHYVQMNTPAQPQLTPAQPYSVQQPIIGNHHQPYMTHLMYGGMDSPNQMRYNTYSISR

B1: CUGBP Elav-like family member 1 (PF3D7_1359400) (protein, UniProt Q8IDB7 1-509)
chain: MDDHENIDINDNSSDANTANYNQDKNENTSEVNDYSKEDIEGDENLKSSKGKQENNTKSSSDKDENTIDYGNHDFPCNPAPPVPIKLFIGRVPKNIEEDQLRPIFEEYGIVNEVVIIRDKITNVHKSSAFVKMASISEADNAIRLLNNQKTLDAQLGSLQVKYASGELNKLGFPQNIESGVDQAKLFIGSLPKNITEDNIKEMFSPYGTVEEVFIMKDNSTGLGKGCSFVKFSYKEQALYAIKSLNGKKTLEGCTRPVEVRFAEPKSSKQPQIPLTLQPMQNPPHAMAPQPSISSPNNINFGNNFSVNNNYPRQVGPWKEYYSGEGRPYYYNEQTNTTQWEMPKEFETLFMNNSANMHNLSESSGPPGANLFIFHVPNEWQQTDLIQAFSPFGELLSARIATEKNTGRNRGFAFVSYDSLESAAAAISQMNGFMALNKKLKVTVKKGEEDEMKKYVNQNGVNSFQQVPRVQKAIPAQPASMQPNLAYHQNPQAQNFFYSNSNSYRCGPY
B2: CUGBP Elav-like family member 2 (PF3D7_1409800) (protein, UniProt Q8ILZ7 1-514)
chain: MSYLSNMSNMNNMNNSTQQYNNENSESPYGEARMSEQCSYQMNSPYNPAPSIPIKLFVSSIPKNLTEEDIKSIFQEYGNIQDVVFIKDKKPNVNRSNVFVRMESIFYGQKAIKDLHGKRTLCETLGPLIVKFAIGELEKYGVNMNNANENEAKLFVGSLPKEITEEELRELFNRYGNVTEVYIMKNSNGISKRCAFVNYAYKEQGIFAIQNMNGKIATENAEKPIEVRFAETKNQLQEKHLFNRSLMNPLNNNMNNMDNMNNMDNMENMDNFDNNNNNNNSSYMQSHAFKNMNMDNFNRYSMNMNFNMQNNNNNQRNNNNNNNGNNNNDNNNNNNINNNNSNGNNNNNSSSNNNSPWKQYYSKEEGRPYYHNEITGETQWQKPRKIEQSFINPINMNEITGPVGANIFIFHIPNEWIQTDLLSAFSPFGNIISAHIATERDTGRNRGFAFVSYDNVDSAINAVKYMNGFLAHKKKLKVTIKKGEEQYVQALINQRNKLNSNDARRNFMENTTNA

Target: T1, PF3D7_0823200 (P. falciparum (endogenous in 3D7 and NF54 parasites))
Assay: affinity purification with mass spectrometry; custom anti-PF3D7_0823200 antibody on DNase I-treated soluble protein extract of 3D7 parasites (late asexual stages), Dynabeads Protein A, washes up to 0.5 M NaCl, MudPIT; rabbit IgG as control; three independent experiments

Binder | binding
B1 | binds
B2 | binds

No constants are given. Whether binding was seen depends on the method and setting. In cells and extracts the contact can be indirect. Here binding means that the protein was enriched with, or labelled near, the bait; the list need not be complete.
